Test results published in PubChem BioAssay AID2685 (National Center for Advancing Translational Sciences (NCATS), 2010).
In all, about 320,000 compounds went through this assay and about 2,100 (0.66%) were called active. Inconclusive means that the source gave no clear call. Such entries were picked first, then a sample of the others. Calls follow the shape of the dose curve; as a rule, active = well fitted inhibition curve with a large enough effect in the signal ratio, with a control signal flat (not every such curve was filed as active); inconclusive = small, poorly fitted or top-dose-only effect, or effect the other way, or a change in a side signal; inactive = flat fitted curve, though single readings scatter; the % refers to the signal ratio. Where the call is inconclusive, the potency comes from a doubtful curve fit.

assay: qHTS Assay for Lipid Storage Modulators in Drosophila S3 Cells; conditions: BODIPY lipid droplet fluorescence, 18-24 h, cells fed with added oleic acid; lipid storage change, negative = inhibition: at 46.1 µM (top of the series) unless noted
Outline: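 Drosophila S3 cells loaded with oleic acid (400 uM, as added) and compounds at several concentrations; lipid droplets imaged by 488-nm laser-scanning cytometry, 500–530 nm intensity and object ratio to cell channel. Percent activity normalized to 20 uM Triacsin C.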
% is scaled to controls: 0 for no effect and ±100 for the full control effect; potency is read from the fitted curve at half-maximal effect.

| SMILES | Potency | lipid storage change, negative = inhibition |
| --- | --- | --- |
| O=C(NCc1cccc(Cl)c1)c1ccc2c(c1)SC1=NS(=O)(=O)CCN12 | inconclusive: 6.51 µM [falling, single point] | – |
| COc1ccc(C(=O)OCC(=O)c2ccc(CNC(C)=O)s2)cc1 | inconclusive: 0.58 µM [falling, single point] | – |
| O=C(NN1CCOCC1)c1ccc(Cl)cc1 | – | inconclusive: 13.5% |
| COc1ccc(-c2nc(N3CCN(C)CC3)sc2-c2ccc(OC)cc2)cc1 | – | inconclusive: -10.3% |
| CCOC(=O)N1CCc2c(sc(NC(=O)C3COc4ccccc4O3)c2C(N)=O)C1 (configuration not stated) | – | inconclusive: -100% |
| CCOc1ncccc1C(=O)NCCc1ccc(S(N)(=O)=O)cc1 | inconclusive: 5.8 µM [activator, partial curve] | – |
| Cc1cc(C)cc(NC(=O)C(=O)NCCCN2CCOCC2)c1 | – | inconclusive: -26.8% |
| CCN(CC)S(=O)(=O)c1ccc(Nc2nc3ccccc3n3nnnc23)cc1 | inconclusive: 1.46 µM [activator, full curve] | – |
| CCNc1nc(NC(C)(C)C)nc(N(CC)n2cnnc2)n1 | – | inconclusive: 19.9% |
| CCc1cc(C(=O)OC)c(NC(=O)CC2NCCNC2=O)s1 (configuration not stated) | – | inconclusive: -16.8% |
| O=C(Cn1cnc2c(nnn2Cc2ccccc2)c1=O)NCC1CCCO1 (configuration not stated) | – | inconclusive: -16.1% |
| C=CC(C)(O)CCCC(C)CCCC(C)CCCC(C)C (configuration not stated) | – | inconclusive: -9.44% |
| CCOC(=O)Cc1csc(NC(=O)CSc2nnc3ccccn23)n1 | – | inconclusive: 35.3% |
| O=C(COC(=O)/C=C/c1ccc(C(F)(F)F)cc1)NCC1CCCCC1 | inconclusive: 0.092 µM [activator, full curve] | – |
| Cc1cc(C)n(CCCNC(=O)CCNS(=O)(=O)c2ccccc2C(F)(F)F)n1 | – | inconclusive: 12.8% |
| Cc1cc(NC(=O)c2ccc(-c3ccccc3F)o2)no1 | – | inconclusive: 12% |
| O=C(COC(=O)c1cccc(S(=O)(=O)N2CCCCCC2)c1)Nc1ccccc1C(F)(F)F | – | inconclusive: 11.9% |
| Cn1cccc1C(=O)OCc1cc(Cl)cc2c1OCOC2 | – | inconclusive: 28.2% |
| CCOc1ccc(Cn2nnc(-c3ccc(S(C)(=O)=O)cc3)n2)cc1OCC | – | inconclusive: 2.82% |
| COc1ccc(C(=O)NC(=S)Nc2ccc3oc(=O)ccc3c2)cc1[N+](=O)[O-] | inconclusive: 5.8 µM [falling, single point] | – |
| Cc1ccccc1C(=O)Nc1ccccc1C(=O)NC1CC1 | – | inconclusive: 84.7% |
| COc1ccc(CCNC(=O)c2ccccc2-c2ccccc2C(=O)O)cc1OC | – | inconclusive: 15.3% |
| CCCN(CCC)S(=O)(=O)c1ccc(NC(=O)COc2ccccc2)cc1 | – | inconclusive: -8.96% |
| Cc1cc(C(=O)N2CCN(S(=O)(=O)c3ccc(C)c(C)c3)CC2)no1 | – | inconclusive |
| COc1cc(/C(C)=C/c2ccccc2)c2c(c1)oc1ccccc12 | – | inconclusive: 15.2% |
| CC1CCC(NC(=O)COC(=O)c2ccc3ncsc3c2)CC1 (configuration not stated) | inconclusive: 32.6 µM [activator, single point] | – |

| SMILES | Potency | lipid storage change, negative = inhibition |
| --- | --- | --- |
| O=C(NCCc1ccc(Cl)cc1)C1CCN(C(=O)c2ccc(F)cc2)CC1 | inconclusive: 5.17 µM [activator, full curve] | – |
| C/C(=N/NC(=O)CN(c1ccccc1)S(=O)(=O)c1ccccc1)c1ccccc1O | – | inactive |
| O=C(c1ccc(Cl)cc1)c1ccc(CN2C(=O)c3ccccc3C2=O)o1 | – | inactive |
| C=CCn1c(SCC(=O)N(C)C2CCS(=O)(=O)C2)nc2ccccc2c1=O (configuration not stated) | – | inconclusive: 98.8% |
| COc1ccccc1C1(CC(=O)O)CCOC(C(C)C)C1 (configuration not stated) | – | inactive |
| O=C(NCCCN1CCOCC1)C(=O)NCC1OCCCN1S(=O)(=O)c1cc(F)ccc1F (configuration not stated) | – | inconclusive: 50.5% |
| Cc1c(C=O)c2ccccc2n1CCOc1ccccc1 | – | inconclusive: -12.7% |
| CCOC(=O)N1CCC2(CC1)C(C#N)=C(N)Oc1c2sc2nc(C)cc(C)c12 | inconclusive: 7.31 µM [activator, partial curve] | – |
| CCOc1ccc(NC(=O)CSc2nc(=O)n(CCCN3CCOCC3)c3c2CCC3)cc1 | – | inconclusive: -49.2% |
| COc1cc(NC(=O)CNC(=O)Cn2ccc3ccccc3c2=O)cc(OC)c1OC | – | inconclusive: 335% |
| COCCCNC(=O)CCn1c(=O)c2ccccc2n(CC(=O)Nc2cc(Cl)ccc2C)c1=O | inconclusive: 0.0046 µM [activator, full curve, poor fit] | – |
| NC(=O)COC(=O)c1cccc2c1-c1ccccc1C2=O | – | inconclusive: -0.78% [at 9.22 µM] |
| CC(C)CNS(=O)(=O)c1ccc(CCC(=O)N2CCN(c3ccccc3)CC2)cc1 | – | inconclusive: 18.5% |
| CCOC(=O)N1CCN(C(=O)Nc2sc3nc4n(c(=O)c3c2C)CCC(C)CC4)CC1 (configuration not stated) | – | inconclusive: 1.53% |
| CCC(COC)NC(=O)c1ccc(OC)c(OC2CCN(C(C)=O)CC2)c1 (configuration not stated) | inconclusive: 29.1 µM [activator, single point] | – |
| C=CCN1C(=O)c2cccc3c(Br)ccc(c23)C1=O | – | inconclusive: 7.06% |
| COc1ccccc1OCCCCN1CCC(C)CC1 | – | inconclusive: 73.8% |
| CC(=O)OC1CC(C)(C)N(OC(=O)c2ccccc2)C(C)(C)C1 | inconclusive: 0.731 µM [falling, full curve, poor fit] | – |
| COc1ccc(N2CC(C(=O)Nc3ccc(S(=O)(=O)N4CCCCC4)cc3)CC2=O)cc1 (configuration not stated) | inconclusive: 16.4 µM [falling, single point] | – |
| COc1ccc(/C=N/Nc2ccc(C(F)(F)F)cc2[N+](=O)[O-])cc1 | inconclusive: 32.6 µM [falling, single point] | – |
| Cc1cc(C)cc(NC(=S)N2CCN(S(C)(=O)=O)CC2)c1 | inconclusive: 8.2 µM [activator, partial curve] | – |
| O=C(C1CCN(c2nnc(-n3cccc3)s2)CC1)N1CCCCC1 | – | inactive |
| COc1ccc(Cn2c(O)c(C=Nc3ccc(C)cc3)c3ccccc3c2=O)cc1 | inconclusive: 0.58 µM [falling, full curve] | – |
| CN(CC(=O)NC1CCCCCC1)S(=O)(=O)c1ccc2c(c1)n(C)c(=O)c(=O)n2C | inconclusive: 0.259 µM [falling, full curve, poor fit] | – |
| O=C(COc1ccc(Br)cc1)Nc1ccc(N2CCOCC2)cc1N1CCOCC1 | inconclusive: 0.13 µM [falling, full curve] | – |
| C=CCC1(CC=C)CCCN1Cc1nc(COc2ccccc2)no1 | – | inconclusive: -1.93% |

A draw from above in order of SMILES length, smallest number first:

| SMILES | Potency | lipid storage change, negative = inhibition |
| --- | --- | --- |
| COc1ccccc1OCCCCN1CCC(C)CC1 | – | inconclusive: 73.8% |
| COc1ccccc1C1(CC(=O)O)CCOC(C(C)C)C1 (configuration not stated) | – | inactive |
| NC(=O)COC(=O)c1cccc2c1-c1ccccc1C2=O | – | inconclusive: -0.78% [at 9.22 µM] |
| C=CCC1(CC=C)CCCN1Cc1nc(COc2ccccc2)no1 | – | inconclusive: -1.93% |
| O=C(C1CCN(c2nnc(-n3cccc3)s2)CC1)N1CCCCC1 | – | inactive |
| CCC(COC)NC(=O)c1ccc(OC)c(OC2CCN(C(C)=O)CC2)c1 (configuration not stated) | inconclusive: 29.1 µM [activator, single point] | – |
| O=C(c1ccc(Cl)cc1)c1ccc(CN2C(=O)c3ccccc3C2=O)o1 | – | inactive |
| COc1ccc(Cn2c(O)c(C=Nc3ccc(C)cc3)c3ccccc3c2=O)cc1 | inconclusive: 0.58 µM [falling, full curve] | – |
| CC(C)CNS(=O)(=O)c1ccc(CCC(=O)N2CCN(c3ccccc3)CC2)cc1 | – | inconclusive: 18.5% |
| O=C(NCCCN1CCOCC1)C(=O)NCC1OCCCN1S(=O)(=O)c1cc(F)ccc1F (configuration not stated) | – | inconclusive: 50.5% |
| CCOC(=O)N1CCN(C(=O)Nc2sc3nc4n(c(=O)c3c2C)CCC(C)CC4)CC1 (configuration not stated) | – | inconclusive: 1.53% |
| COCCCNC(=O)CCn1c(=O)c2ccccc2n(CC(=O)Nc2cc(Cl)ccc2C)c1=O | inconclusive: 0.0046 µM [activator, full curve, poor fit] | – |
| COc1ccc(N2CC(C(=O)Nc3ccc(S(=O)(=O)N4CCCCC4)cc3)CC2=O)cc1 (configuration not stated) | inconclusive: 16.4 µM [falling, single point] | – |
| CN(CC(=O)NC1CCCCCC1)S(=O)(=O)c1ccc2c(c1)n(C)c(=O)c(=O)n2C | inconclusive: 0.259 µM [falling, full curve, poor fit] | – |

Next part

| SMILES | Potency | lipid storage change, negative = inhibition |
| --- | --- | --- |
| CCN(CC(=O)Nc1cccc(OC)c1)CC(=O)Nc1ccccc1C | – | inconclusive: 27.4% |
| CC1CCCCC1NC(=O)c1cccc(N2C(=O)C3C4C=CC(C4)C3C2=O)c1 (configuration not stated) | – | inconclusive: -23.3% |
| O=C1C2C3C=CC(C4CC34)C2C(=O)N1/N=C/c1ccc(-c2ccc([N+](=O)[O-])cc2)o1 (configuration not stated) | inconclusive: 5.17 µM [cytotoxic, single point] | – |
| COc1ccccc1-c1nc(N)n[nH]1 | – | inconclusive: 15.7% |
| COc1ccc(N(CC(=O)NN=C2CCCC2)S(=O)(=O)c2ccccc2)cc1 | – | inconclusive: 10.7% |
| S=c1nc(Cc2ccc(Cl)cc2)[nH]c2ccccc12 | – | inconclusive: 11.4% |
| O=C(CN1CCOCC1)N/N=C/C(Br)=C\c1ccccc1 | – | inconclusive: -19.9% |
| COc1ccc(C(=O)N(C)Cc2ccc(C)o2)cc1OC1CCN(C(C)C)CC1 | – | inconclusive: 61.5% |
| O=C(C1CCN(S(=O)(=O)c2cccnc2)CC1)N1CCCCC1 | – | inconclusive: -3.47% |
| Cc1ccc(C(=O)CSc2n[nH]c(C)n2)cc1 | – | inconclusive: -46.5% |
| O=C(CCN1C(=O)c2ccccc2C1=O)NCCCn1ccnc1 | – | inconclusive: 2.8% |
| Cc1ccnc(NS(=O)(=O)c2ccc(NS(=O)(=O)c3ccc(Br)cc3)cc2)n1 | inconclusive: 29.1 µM [activator, single point] | – |
| CSc1ccccc1NC(=O)CSc1nnc(CNC(=O)c2ccccc2F)n1C | – | inconclusive: 9.3% |
| NS(=O)(=O)c1ccc(NC(=O)CSc2nnc(C3CC3)n2C2CC2)cc1 | – | inconclusive: 5.29% |
| CCN1C(=O)c2cccc3c(NC(=O)c4ccc5c(c4)OCCO5)ccc1c23 | – | inconclusive: -51.8% |
| CC(=O)c1ccc(OCCNS(=O)(=O)c2ccc(-n3cnnn3)c(C)c2)cc1 | inconclusive: 29.1 µM [falling, single point] | – |
| Cc1c(C(=O)NCc2ccco2)oc2c(F)cccc12 | inconclusive: 1.03 µM [activator, partial curve] | – |
| CCC(CC)C(=O)Nc1cccc(C(=O)Nc2ccc(S(=O)(=O)Nc3ccc(C)cc3)cc2)c1 | inconclusive: 2.59 µM [activator, single point] | – |
| COc1ccc(N(CC(=O)NCC2CCCO2)C(=O)CCC(=O)Nc2nccs2)c(OC)c1 (configuration not stated) | – | inconclusive: 31.8% |
| COc1cc2c(cc1OC)C(c1ccccc1C(F)(F)F)CC(=O)N2 (configuration not stated) | inconclusive: 0.651 µM [falling, partial curve, poor fit] | – |
| CC1CCN(S(=O)(=O)c2ccc(F)c(C(=O)O)c2)CC1 | – | inconclusive: 6.94% |
| CCOc1ccccc1N1CC(C(=O)Nc2c(C)n(C)n(-c3ccccc3)c2=O)CC1=O (configuration not stated) | – | inconclusive: 3.2% |
| Cc1cc(C(=O)NNC(=S)Nc2cccc(C(F)(F)F)c2)nn1C | – | inconclusive: 7.38% |
| CCOC(=O)C1CCN(c2c(Nc3cc(C)cc(C)c3)c(=O)c2=O)CC1 | – | inconclusive: 3.63% |
| O=C(Nc1cccc(F)c1)c1ccc(S(=O)(=O)NCC2CCCO2)cc1 (configuration not stated) | – | inconclusive: 13.6% |
